No constants are given. Whether binding was seen depends on the method and setting. In cells and extracts the contact can be indirect. Some entries that bind do so weakly or less than the wild type. Blank lines part the entries; values can stand above or below the molecule they belong to.
Target: T1, LIN28A (mouse (endogenous in ES cells)) (UniProt Q8K3Y3)
T1 sequence: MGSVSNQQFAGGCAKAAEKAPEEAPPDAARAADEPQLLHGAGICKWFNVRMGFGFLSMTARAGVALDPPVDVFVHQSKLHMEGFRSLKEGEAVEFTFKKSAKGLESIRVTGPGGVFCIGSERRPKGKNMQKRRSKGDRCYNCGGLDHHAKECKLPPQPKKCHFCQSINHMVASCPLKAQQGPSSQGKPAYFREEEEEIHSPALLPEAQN
Assay: co-IP; endogenous LIN28A precipitated with anti-LIN28A (normal IgG as control) from RIPA lysate of ES cells, overnight at 4 °C, magnetic beads; Western blot

The chains behind the UniProt entries cited, without tags or fusion partners.
UniProt Q61937: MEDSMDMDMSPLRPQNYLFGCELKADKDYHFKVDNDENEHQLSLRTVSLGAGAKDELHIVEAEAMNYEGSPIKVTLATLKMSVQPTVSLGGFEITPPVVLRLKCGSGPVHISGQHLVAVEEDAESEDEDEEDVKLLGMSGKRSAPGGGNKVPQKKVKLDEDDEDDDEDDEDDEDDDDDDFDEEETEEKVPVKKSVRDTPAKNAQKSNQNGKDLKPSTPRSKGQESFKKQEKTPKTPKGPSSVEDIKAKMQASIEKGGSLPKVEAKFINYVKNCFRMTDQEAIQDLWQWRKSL

- binding: binds
Molecule: Nucleophosmin (NPM1) (from UniProt Q61937 1-292)

- binding: binds
B1: Fibrillarin (FBL) (protein, UniProt P35550 1-327)
chain: MKPGFSPRGGGFGGRGGFGDRGGRGGGRGGRGGFGGGRGGFGGGGRGRGGGGGGFRGRGGGGGRGGGFQSGGNRGRGGGRGGKRGNQSGKNVMVEPHRHEGVFICRGKEDALVTKNLVPGESVYGEKRVSISEGDDKIEYRAWNPFRSKLAAAILGGVDQIHIKPGAKVLYLGAASGTTVSHVSDIVGPDGLVYAVEFSHRSGRDLINLAKKRTNIIPVIEDARHPHKYRMLIAMVDVIFADVAQPDQTRIVALNAHTFLRNGGHFVISIKANCIDSTASAEAVFASEVKKMQQENMKPQEQLTLEPYERDHAVVVGVYRPPPKVKN

Source: paper PMC9226220
